Test system: DOPr
Set-up: species or system human
Settings: ratio of binding Ki
Procedure: Cell lines, cell culture, and drug preparation. The hDOPr-CHO cell line was a generous gift from Dr. Larry Toll at the Torrey Pines Institute. The hMOPr- and hKOPr-CHO cell lines were generous gifts from John M. Streicher at the University of Arizona. All cells were cultured in 50:50 DMEM/F12 media with 10% heat-inactivated FBS and 1X penicillin/streptomycin supplement (all Gibco brand) in a 37°C humidified incubator with 5% CO2 atmosphere. Propagation cultures were further maintained with 500 μg/mL G418. Cultures were propagated for no more than 30 passages before discarding. […] Cell pellets were resuspended in 50 mM Tris HCl pH 7.4 and homogenized with a tissue grinder for 15–30 s on ice. Crude membranes were spun down at 15,000 g for 30 min. This process was repeated, and membrane preparations were stored at −80°C prior to use.
Briefly, these reactions were miniaturized to a 400 μL volume in 96 well plates and incubated at RT for 1 h at DOPr-, KOPr- and MOPr-CHO membrane preparations. The reactions were terminated by rapid filtration through 96-well format GF/B filter plates (PerkinElmer) and washed with cold 25 mM Tris HCl pH 7.4 buffer, dried, and added ECOLUME^TM scintillation cocktail from MP Biomedicals (Santa Cruz, CA, United States). The plates were read in a MicroBeta2 96-well format 6 detector scintillation counter (PerkinElmer). KI values were calculated using the IC50 of each competitor ligand and the previously established KD of ^3H-diprenorphine in each cell line using a competition binding model (GraphPad Prism 7.0).

SMILES | Selectivity DOPr/MOPr (Ki)
CN1CC[C@]23c4c5ccc(O)c4O[C@H]2C(=O)/C(=C/c2ccc(F)cc2)C[C@@]3(O)[C@H]1C5 [Compound 7] | 2.8
CN1CC[C@]23c4c5ccc(O)c4O[C@H]2C(=O)/C(=C/c2ccc(Cl)cc2)C[C@@]3(O)[C@H]1C5 [Compound 8] | 2.0
CN1CC[C@]23c4c5ccc(O)c4O[C@H]2C(=O)/C(=C/c2ccc(Br)cc2)C[C@@]3(O)[C@H]1C5 [Compound 9] | 3.0
COc1ccc(/C=C2\C[C@@]3(O)[C@H]4Cc5ccc(O)c6c5[C@@]3(CCN4C)[C@@H](O6)C2=O)cc1 [Compound 10] | 3.4
CN1CC[C@]23c4c5ccc(O)c4O[C@H]2C(=O)/C(=C/c2ccc(O)cc2)C[C@@]3(O)[C@H]1C5 [Compound 11] | 1.6
CN1CC[C@]23c4c5ccc(O)c4O[C@H]2C(=O)/C(=C/c2ccc([N+](=O)[O-])cc2)C[C@@]3(O)[C@H]1C5 [Compound 12, Nitro-benzylideneoxymorphone] | 11
CN1CC[C@]23c4c5ccc(O)c4O[C@H]2C(=O)/C(=C/c2cccc4ccccc24)C[C@@]3(O)[C@H]1C5 [Compound 13] | 0.7
CN1CC[C@]23c4c5ccc(O)c4O[C@H]2C(=O)/C(=C/c2ccc4ccccc4c2)C[C@@]3(O)[C@H]1C5 [Compound 14] | 28
